These are yes or no findings as the source states them, for the method shown. Some entries that bind do so weakly or less than the wild type.
Key:
Assay in all cases: Western blot of culture supernatant (non-reducing SDS-PAGE) probed with 3F7 mAb, anti-human IgG-FITC
[1] = substrate: T1, **
T1 sequence (single chain): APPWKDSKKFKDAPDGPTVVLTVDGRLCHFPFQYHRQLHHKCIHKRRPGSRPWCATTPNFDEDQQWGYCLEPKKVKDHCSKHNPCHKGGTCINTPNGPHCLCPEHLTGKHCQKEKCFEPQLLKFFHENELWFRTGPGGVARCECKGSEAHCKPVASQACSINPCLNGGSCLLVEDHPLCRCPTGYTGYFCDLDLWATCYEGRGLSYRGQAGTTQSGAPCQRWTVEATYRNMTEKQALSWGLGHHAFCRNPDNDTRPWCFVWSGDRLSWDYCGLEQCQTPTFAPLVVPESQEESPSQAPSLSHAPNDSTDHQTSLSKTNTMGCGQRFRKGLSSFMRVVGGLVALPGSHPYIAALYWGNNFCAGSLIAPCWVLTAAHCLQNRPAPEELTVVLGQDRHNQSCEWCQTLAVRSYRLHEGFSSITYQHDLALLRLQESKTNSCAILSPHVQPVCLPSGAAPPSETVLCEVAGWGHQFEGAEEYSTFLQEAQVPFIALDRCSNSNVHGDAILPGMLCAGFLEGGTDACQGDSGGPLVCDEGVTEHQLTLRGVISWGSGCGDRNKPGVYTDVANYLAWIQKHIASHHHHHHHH

T454K = target: T2, T454K
T2 sequence (single chain): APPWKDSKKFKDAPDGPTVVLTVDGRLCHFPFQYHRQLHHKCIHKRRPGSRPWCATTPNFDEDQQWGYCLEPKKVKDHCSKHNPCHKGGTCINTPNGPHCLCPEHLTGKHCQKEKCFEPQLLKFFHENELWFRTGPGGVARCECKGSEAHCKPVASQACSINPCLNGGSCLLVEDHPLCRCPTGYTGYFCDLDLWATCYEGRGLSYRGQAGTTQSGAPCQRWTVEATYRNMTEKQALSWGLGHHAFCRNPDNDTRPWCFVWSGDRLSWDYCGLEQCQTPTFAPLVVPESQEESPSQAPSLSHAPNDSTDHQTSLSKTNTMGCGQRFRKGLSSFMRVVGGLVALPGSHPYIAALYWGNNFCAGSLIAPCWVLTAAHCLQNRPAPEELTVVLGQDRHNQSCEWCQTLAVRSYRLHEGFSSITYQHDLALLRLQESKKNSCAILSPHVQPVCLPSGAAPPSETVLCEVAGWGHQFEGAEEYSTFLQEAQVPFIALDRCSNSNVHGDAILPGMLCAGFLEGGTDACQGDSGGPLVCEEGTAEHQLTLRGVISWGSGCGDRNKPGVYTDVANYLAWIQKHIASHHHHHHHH

K453R = target: T3, K453R
T3 sequence (single chain): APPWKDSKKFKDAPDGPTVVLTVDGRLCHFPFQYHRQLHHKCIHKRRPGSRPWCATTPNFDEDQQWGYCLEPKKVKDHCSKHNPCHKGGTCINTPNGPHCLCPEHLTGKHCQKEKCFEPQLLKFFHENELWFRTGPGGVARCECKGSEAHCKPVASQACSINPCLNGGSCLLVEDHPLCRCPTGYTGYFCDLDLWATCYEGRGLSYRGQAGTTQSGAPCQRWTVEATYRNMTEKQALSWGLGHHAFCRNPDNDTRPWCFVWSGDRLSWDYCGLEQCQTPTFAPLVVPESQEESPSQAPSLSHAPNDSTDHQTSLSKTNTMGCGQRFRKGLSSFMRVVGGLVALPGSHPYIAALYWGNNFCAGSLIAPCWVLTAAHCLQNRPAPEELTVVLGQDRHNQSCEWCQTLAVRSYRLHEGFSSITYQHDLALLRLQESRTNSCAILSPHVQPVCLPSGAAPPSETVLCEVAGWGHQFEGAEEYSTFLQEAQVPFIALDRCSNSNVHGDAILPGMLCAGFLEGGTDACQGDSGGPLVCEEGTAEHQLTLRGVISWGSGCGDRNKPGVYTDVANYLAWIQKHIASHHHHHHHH

binding [1]: binds | binding (T454K): binds | binding (K453R): binds
B1: monoclonal antibody 3F7 (fully human IgG4/lambda) (antibody, V domains shown)
VH: EVQLLESGGGLVQPGGSLRLSCAASGFTFSKYIMQWVRQAPGKGLEWVSGIRPSGGTTVYADSVKGRFTISRDNSKNTLYLQMNSLRAEDTAVYYCARALPRSGYLISPHYYYYALDVWGQGTTVTVSS
VL: QSELTQPPSASGTPGQRVTISCSGSSSNIGRNYVYWYQQVPGTAPKLLIYSNNQRPSGVPDRFSGSKSGTSASLVISGLRSEDEADYYCAAWDASLRGVFGGGTKLTVLG
notes: also called 3F7 mAb; MAb 3F7

— patent US20200062863A1 (CSL BEHRING, published 2020)
